Measured values taken from paper PMC10684895.
The exact form of at least one protein or probe is not confirmed. A weaker result is weaker than the reference pair of the same experiment. At least one verdict was read from the data and is not stated in words by the source.

Chains of the proteins cited; added tags and fusions are not shown. Lines headed by an entry give the natural chain unless they say otherwise; changes in a name come on top.
UniProt Q14576: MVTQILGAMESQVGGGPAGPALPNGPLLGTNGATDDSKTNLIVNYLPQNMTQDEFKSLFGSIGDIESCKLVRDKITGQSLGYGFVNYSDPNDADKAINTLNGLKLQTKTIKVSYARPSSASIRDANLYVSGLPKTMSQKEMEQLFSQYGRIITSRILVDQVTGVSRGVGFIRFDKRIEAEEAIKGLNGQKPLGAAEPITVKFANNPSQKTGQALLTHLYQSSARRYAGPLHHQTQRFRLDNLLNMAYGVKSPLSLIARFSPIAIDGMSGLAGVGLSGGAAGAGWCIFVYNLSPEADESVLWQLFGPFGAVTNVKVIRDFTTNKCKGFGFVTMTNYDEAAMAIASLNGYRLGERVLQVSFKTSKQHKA

Target: GST-ELAVL3 (UniProt Q14576)
Experiment: EMSA
Settings: 5 mM Mg2+, RNA-EMSA: 20 mM Tris-HCl (pH not stated), 100 mM NaCl, 5 mM MgCl2, 2 mM DTT, 37 C 1 h, 6% native gel at 4 C, recombinant protein, protein details: N-terminal GST (pGEX-4T-1), label: 3'-biotin

Sequence	binding result	binding result (pyrvinium pamoate)
CACUUUGCACAUUUUGAUUUUUUUUUUAAA [MYCN-3'UTR-F1]	binds	binds more weakly
UUCAUUUUAAACACUACCUCAGUUAAUAUA [RICTOR-3'UTR-F3]	binds	–
